Reference: the supplement of paper PMC10373366
Structures can show the parent of a compound that is named as a salt. This is one part of the list. Most values come without repeats; read them as rough.

Test system: A2780
Assay: cell growth inhibition ratio vs untreated control (CCK8); higher = stronger inhibition of cell viability
Conditions: 10 µM; 48 h
Protocol: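 Natural product library (Topscience) screened at 10 µM final concentration for 48 h on ovarian cancer A2780 cells and patient-derived ovarian cancer cells (PDC) in 96-well plates; viability read by CCK8 and reported as inhibition ratio (%) relative to untreated control. Single-dose primary screen.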

Row | SMILES | cell growth inhibition ratio
1 | COc1ccc2c(c1)[nH]c1c(C)nccc12 [Harmine hydrochloride] | 58.2%
2 | C/C=C/C#CC#C/C=C/c1ccco1 [Atractylodin] | -6.71%
3 | Cc1c2ccncc2c(C)c2c1[nH]c1ccccc12 [Ellipticine] | 73.8%
4 | C/C=C(\C)C(=O)N[C@@H](c1ccccc1)[C@@H](O)C(=O)O[C@H]1C[C@@]2(O)[C@@H](OC(=O)c3ccccc3)[C@@H]3[C@]4(OC(C)=O)CO[C@@H]4C[C@H](O)[C@@]3(C)C(=O)[C@H](OC(C)=O)C(=C1C)C2(C)C [Cephalomannine] | 83.8%
5 | Cc1c([C@H](C)[C@@H]2NC[C@@H](C)C[C@H]2O)ccc2c1C[C@H]1[C@H]2CC=C2C[C@@H](O)CC[C@@]21C [Veratramine] | 46.9%
6 | CCC(=O)O[C@H]1CC[C@H]2[C@@H]3CC[C@H]4CC(=O)[C@H](C)C[C@]4(C)[C@H]3CC[C@]12C [Drostanolone Propionate] | 38.2%
7 | CC[C@]12C=CCN3CC[C@]4(C(=C(C(=O)OC)C1)Nc1ccccc14)[C@@H]32 [Tabersonine] | 29.3%
8 | CC(C)[C@]12O[C@H]1[C@@H]1O[C@]13[C@]1(O[C@H]1C[C@H]1C4=C(CC[C@@]13C)C(=O)OC4)[C@@H]2O [Triptolide (PG490)] | 83.2%
9 | COc1ccc(Cc2nccc3cc(OC)c(OC)cc23)cc1OC [Papaverine hydrochloride] | 38.9%
10 | CC(=O)OC12COC1CC(O)C1(C)C(=O)C(O)C3=C(C)C(O)CC(O)(C(OC(=O)c4ccccc4)C21)C3(C)C (stereo not given) [10-Deacetylbaccatin III] | 72.2%
11 | C=C[C@@H]1C2=CCOC(=O)C2=CO[C@H]1O[C@@H]1O[C@H](CO)[C@@H](O)[C@H](O)[C@H]1O [Gentiopicrin] | 8.87%
12 | C[C@]12CC[C@H](O)CC1=CC[C@@H]1[C@@H]2CC[C@]2(C)C(=O)CC[C@@H]12 [Dehydroepiandrosterone] | 3.82%
13 | NCCc1c[nH]c2ccccc12 [Tryptamine] | 4.1%
14 | COc1cc2c3c(c1OC)-c1ccccc1C[C@H]3N(C)CC2 [Nuciferine] | 7.82%
15 | CNCC(O)c1ccc(O)cc1 (stereo not given) [Synephrine] | 16%
16 | CC(=O)OCC1=C(C(=O)O)N2C(=O)[C@@H](N)[C@H]2SC1 [7-Aminocephalosporanic acid] | -22%
17 | NCCc1ccc(O)cc1 [Tyramine] | 79.1%
18 | CC(=O)O[C@H]1C(=O)[C@@]2(C)[C@H]([C@H](OC(=O)c3ccccc3)[C@]3(O)C[C@H](O)C(C)=C1C3(C)C)[C@]1(OC(C)=O)CO[C@@H]1C[C@@H]2O [Baccatin III] | 41.4%
19 | COc1ccc2c(c1)[nH]c1c(C)nccc12 [Harmine] | 58.3%
20 | CC[C@H]1CN2CC[C@H]1C[C@@H]2[C@@H](O)c1ccnc2ccc(OC)cc12 [Hydroquinidine] | -50.3%

Excerpt: entries 17–18
Row | SMILES | cell growth inhibition ratio
17 | NCCc1ccc(O)cc1 [Tyramine] | 79.1%
18 | CC(=O)O[C@H]1C(=O)[C@@]2(C)[C@H]([C@H](OC(=O)c3ccccc3)[C@]3(O)C[C@H](O)C(C)=C1C3(C)C)[C@]1(OC(C)=O)CO[C@@H]1C[C@@H]2O [Baccatin III] | 41.4%

More records follow:

Row | SMILES | cell growth inhibition ratio
21 | C[C@]12CCC(=O)C=C1CC[C@@H]1[C@@H]2CC[C@@]2(C)[C@H]1CC[C@]2(C)O [17-Methyltestosterone] | 17.6%
22 | CC(C)=CCC[C@]1(C)C=Cc2c(O)c3c(c(CC=C(C)C)c2O1)O[C@]12C(=C[C@@H]4C[C@H]1C(C)(C)O[C@@]2(C/C=C(/C)C(=O)O)C4=O)C3=O [Gambogic Acid] | 7.37%
23 | C[C@]12C=CC(=O)C=C1CC[C@@H]1[C@@H]2CC[C@@]2(C)[C@H]1CC[C@]2(C)O [Methandrostenolone] | 2.28%
24 | CN(C)CCc1ccc(O)cc1 [Hordenine] | -5.76%
25 | CCC1=CC2CN3CCc4c([nH]c5ccccc45)C(C(=O)OC)(C2)C13 (stereo not given) [Catharanthine sulfate] | 27.3%
26 | CCC1=C[C@@H]2CN3CCc4c([nH]c5ccccc45)[C@@](C(=O)OC)(C2)[C@@H]13 [Catharanthine tartrate] | 7.54%
27 | CN1[C@@H]2C[C@@H](OC(=O)[C@H](CO)c3ccccc3)C[C@H]1[C@@H]1O[C@@H]12 [Scopolamine HBr] | -1.09%
28 | O=C1CCC[C@@H]2[C@H]3CCCN4CCC[C@@H](CN12)[C@@H]34 [(+)-Matrine] | 4.48%
29 | CCN1C[C@]2(COC)[C@H](O)C[C@H](OC)[C@@]34[C@@H]5C[C@@]6(O)[C@H](OC(=O)c7ccccc7)[C@@H]5[C@@](OC(C)=O)([C@@H]([C@H](OC)[C@H]23)[C@@H]14)[C@@H](O)[C@@H]6OC [Aconitine] | 13.7%
30 | Cc1cc2c(C(C)C)c(O)c(O)c(C=O)c2c(O)c1-c1c(C)cc2c(C(C)C)c(O)c(O)c(C=O)c2c1O [Gossypol] | 4.98%
31 | COc1cc([C@@H]2c3cc4c(cc3[C@H](O)[C@H]3COC(=O)[C@H]23)OCO4)cc(OC)c1OC [Podophyllotoxin] | 88.3%
32 | CC1=C(O)C(=O)C=C2C1=CC=C1[C@@]2(C)CC[C@@]2(C)[C@@H]3C[C@](C)(C(=O)O)CC[C@]3(C)CC[C@]12C [Celastrol] | 0.5%
33 | O=C1C=CC[C@@H]2[C@H]3CCCN4CCC[C@@H](CN12)[C@@H]34 [Sophocarpine] | 2.9%
34 | C=C[C@H]1CN2CC[C@H]1C[C@H]2[C@H](O)c1ccnc2ccccc12 [Cinchonidine] | -13.5%
35 | CN(C)[C@@H]1C(=O)C(C(N)=O)=C(O)[C@@]2(O)C(=O)C3=C(O)c4c(O)cccc4[C@@](C)(O)[C@H]3C[C@@H]12 [Tetracycline hydrochloride] | -0.968%
36 | Cc1nccc2c1[nH]c1ccccc12 [Harmane] | 20.1%
37 | COc1cc(OC)c(OC)cc1C=O [Asarylaldehyde] | 0.883%
38 | C=CCCCCCCCCC(=O)O[C@H]1CC[C@H]2[C@@H]3CCC4=CC(=O)C=C[C@]4(C)[C@H]3CC[C@]12C [Boldenone Undecylenate] | 5.82%
39 | CC(C)=CCC[C@](C)(O)[C@H]1CC[C@]2(C)[C@@H]1[C@H](O)C[C@@H]1[C@@]3(C)CC[C@H](O)C(C)(C)[C@@H]3[C@@H](O[C@@H]3O[C@H](CO)[C@@H](O)[C@H](O)[C@H]3O)C[C@]12C [Ginsenoside Rh1] | 22.8%
40 | CN1CCc2cc3c(cc2C1C1OC(=O)c2c1ccc1c2OCO1)OCO3 (single isomer, unassigned; (+)) [(+)-Bicuculline] | 4.33%
